According to article doi:10.1101/2025.09.29.679137:

Assays:
[1] = molecular target: T1, NEPN (mouse NEPN, His-tagged, secreted into conditioned medium of A375-NEPN and NALM6-NEPN cells) (mouse) (UniProt Q9CQ76); assay: co-IP
T1 sequence: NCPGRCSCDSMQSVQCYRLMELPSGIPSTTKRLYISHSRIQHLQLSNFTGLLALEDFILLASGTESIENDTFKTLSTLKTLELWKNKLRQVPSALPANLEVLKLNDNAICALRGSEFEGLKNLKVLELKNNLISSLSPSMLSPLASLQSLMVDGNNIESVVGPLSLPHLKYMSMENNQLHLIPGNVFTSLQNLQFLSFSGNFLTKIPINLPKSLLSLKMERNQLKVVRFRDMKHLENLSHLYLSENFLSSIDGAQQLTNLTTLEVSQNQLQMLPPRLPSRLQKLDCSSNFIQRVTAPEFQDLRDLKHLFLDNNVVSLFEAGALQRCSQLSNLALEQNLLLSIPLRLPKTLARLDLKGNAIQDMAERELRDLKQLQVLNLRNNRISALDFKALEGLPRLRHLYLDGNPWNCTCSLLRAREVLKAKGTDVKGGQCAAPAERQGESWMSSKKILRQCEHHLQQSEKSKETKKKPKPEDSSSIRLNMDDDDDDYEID

[2] = molecular target: T2, NEPN (bait of the immunoprecipitations from tumor lysates and from the liver metastasis site) (mouse) (UniProt Q9CQ76); assay: co-IP
T2 sequence: T1 sequence

| binding [1] | binding [2] | Substance |
| --- | --- | --- |
| binds | – | active TGFβ1 (human (endogenous in A375 and NALM6)) (ligand) |
| binds | – | latent transforming growth factor β-binding protein (LTBP) (human (endogenous in A375 and NALM6)) |
| – | binds | TGF-β (cytokine found in the NEPN immunoprecipitate of the liver metastasis site) (ligand) |

These are yes or no findings as the source states them, for the method shown. In cells and extracts the contact can be indirect. Binding can be weak; no strength is given. For part of these data: Tags and fused reporters may be left off the sequences shown.
